According to the supplement of paper PMC6331611:
± gives the standard deviation of the averaged measurements. Whole data set: some 1,600 compounds, median “normalized growth (OD600, IQM-normalized) in LPM” near 1, cut for the lowest 2% near 0.014. This is one part of the list.

Each molecule was assayed on Salmonella enterica serovar Typhimurium SL1344 (assay: normalized growth (OD600, IQM-normalized) in LPM (fraction of plate interquartile mean); higher = more bacterial growth (less inhibition)). Conditions: LPM pH 5.8; 10 µM; 16 h.
Molecule `CCOC(=S)SSC(=S)OCC` has a normalized growth of 0.885 ± 0.073. For `NC(=O)CC[C@H](N)C(=O)O`, the normalized growth was 1.04 ± 0.056. In the case of `O=C1c2ccccc2C(=O)C1c1ccc(Br)cc1`, the normalized growth is reported as 0.935 ± 0.066. `CC=CC1=C(C(=O)O)N2C(=O)[C@@H](NC(=O)[C@H](N)c3ccc(O)cc3)[C@H]2SC1` was tested, and the normalized growth was 1.04 ± 0.032. Molecule `CC1/C=C/C=C/C=C/C=C/C=C/C=C/C=C/C(OC2O[C@H](C)[C@@H](O)[C@H](N)[C@@H]2O)CC(O)C(C(=O)O)C(O)CC(=O)CC(O)CC(O)CC(O)CC(=O)CCCC(=O)CC(=O)OC1C(C)CC(C)C(O)CC(=O)c1ccc(N)cc1` (some centres undefined) has a normalized growth of 1.03 ± 0.045. In the case of `O=c1oc2cc(O)ccc2s1`, the normalized growth is reported as 0.91 ± 0.046. `CCOc1ccc2nc(S(N)(=O)=O)sc2c1` gave a normalized growth of 0.838 ± 0.03. `CN/C(=N\CCSCc1nc[nH]c1C)NC#N` showed a normalized growth of 0.949 ± 0.034. For `C/C(=C\C(=O)OCCCCCCCCC(=O)O)C[C@@H]1OC[C@H](C[C@@H]2O[C@H]2[C@@H](C)[C@H](C)O)[C@@H](O)[C@H]1O`, the normalized growth was 0.00952 ± 0.00017. In the case of `Cc1ccnc(NS(=O)(=O)c2ccc(N)cc2)n1`, the normalized growth is reported as 0.915 ± 0.15. Work on `[O-][n+]1cccc(CO)c1` yielded a normalized growth of 1.02 ± 0.07. With `COc1ccc(C[C@H](N)C(=O)N[C@H]2[C@@H](O)[C@H](n3cnc4c(N(C)C)ncnc43)O[C@@H]2CO)cc1` the normalized growth was 1 ± 0.02. `CCCCC/C=C/CCC(=O)N[C@H]1[C@H](Oc2c3cc4cc2Oc2ccc(cc2Cl)[C@@H](O[C@@H]2O[C@H](CO)[C@@H](O)[C@H](O)[C@H]2NC(C)=O)[C@@H]2NC(=O)[C@H](NC(=O)[C@@H]4NC(=O)[C@H]4NC(=O)C(Cc5ccc(c(Cl)c5)O3)NC(=O)[C@H](N)c3ccc(O)c(c3)Oc3cc(O)cc4c3)c3ccc(O)c(c3)-c3c(OC4O[C@H](CO)[C@@H](O)[C@H](O)[C@@H]4O)cc(O)cc3[C@@H](C(=O)O)NC2=O)O[C@H](CO)[C@@H](O)[C@@H]1O` (some centres undefined) [TEICOPLANIN [A(2-1) shown]] showed a normalized growth of 0.904 ± 0.052. `NCCCC(O)(P(=O)(O)O)P(=O)(O)O` gave a normalized growth of 1.02 ± 0.029. In the case of `CNC[C@H](O)[C@@H](O)[C@H](O)[C@H](O)CO`, the normalized growth is reported as 0.964 ± 0.041. `Nc1ccc(S(=O)(=O)Nc2cnc3ccccc3n2)cc1` was tested, and the normalized growth was 1.08 ± 0.045. Work on `C[C@H](Cn1cnc2c(N)ncnc21)OCP(=O)(O)O` yielded a normalized growth of 0.981 ± 0.024. Work on `CCCCNc1cc(C(=O)O)cc(S(N)(=O)=O)c1Oc1ccccc1` yielded a normalized growth of 1.034 ± 0.0062. Work on `CC(C)n1c(/C=C/C(O)CC(O)CC(=O)O)c(-c2ccc(F)cc2)c2ccccc21` (centres undefined) yielded a normalized growth of 0.992 ± 0.024. Work on `CC[C@H](C)C(=O)O[C@H]1C[C@@H](C)C=C2C=C[C@H](C)[C@H](CC[C@@H]3C[C@@H](O)CC(=O)O3)[C@H]21` yielded a normalized growth of 1.38 ± 0.024. For `CCN(CC)CCOC(=O)c1ccc(N)cc1`, the normalized growth was 0.955 ± 0.032. In the case of `CC(C)CCCC(C)N` (centres undefined), the normalized growth is reported as 1.05 ± 0.09. Work on `CC(=O)O[C@H]1C[C@@]2(C)[C@@H](C[C@@H](O)[C@H]3[C@@]4(C)CC[C@@H](O)[C@@H](C)[C@@H]4CC[C@@]32C)/C1=C(\CCC=C(C)C)C(=O)O` yielded a normalized growth of 0.491 ± 0.048. Work on `CC(=O)N[C@@H](CS)C(=O)O` yielded a normalized growth of 1.16 ± 0.078. Work on `CNCCCC12CCC(c3ccccc31)c1ccccc12` yielded a normalized growth of 0.972 ± 0.046. Molecule `OC(c1cc(C(F)(F)F)nc2c(C(F)(F)F)cccc12)C1CCCCN1` (centres undefined) has a normalized growth of 1.01 ± 0.035. With `CCCCCC(=O)O[C@]1(C(C)=O)CC[C@H]2[C@@H]3CCC4=CC(=O)CC[C@]4(C)[C@H]3CC[C@@]21C` the normalized growth was 1.07 ± 0.02. Molecule `Cc1cc(C)cc(OCC2CNC(=O)O2)c1` (centres undefined) has a normalized growth of 1.02 ± 0.03. `CC(=O)O[C@H]1C[C@@H]2CC[C@@H]3[C@H](CC[C@@]4(C)[C@H]3C[C@H]([N+]3(C)CCCCC3)[C@@H]4OC(C)=O)[C@@]2(C)C[C@@H]1N1CCCCC1` gave a normalized growth of 0.98 ± 0.049. Work on `C[C@@H](O)[C@H]1C(=O)N2C(C(=O)O)=C(S[C@@H]3CN[C@H](C(=O)N(C)C)C3)[C@H](C)[C@H]12` yielded a normalized growth of 0.114 ± 0.016. Molecule `CCN(CC)C(=O)/C(C#N)=C/c1cc(O)c(O)c([N+](=O)[O-])c1` has a normalized growth of 0.924 ± 0.023. In the case of `C[C@@H]1O[C@@H](OC[C@H]2O[C@@H](Oc3c(-c4ccc(OCCO)c(OCCO)c4)oc4cc(OCCO)cc(O)c4c3=O)[C@H](O)[C@@H](O)[C@@H]2O)[C@H](O)[C@H](O)[C@H]1O`, the normalized growth is reported as 0.92 ± 0.036. With `C[C@]12C=CC(=O)C=C1CC[C@H]1[C@@H]3C[C@@H](O)[C@](O)(C(=O)CO)[C@@]3(C)C[C@H](O)[C@@]12F` the normalized growth was 0.9001 ± 0.0084. In the case of `CN(C/C=C/c1ccccc1)Cc1cccc2ccccc12`, the normalized growth is reported as 0.885 ± 0.019. In the case of `CN1C(=O)OC(C)(C)C1=O`, the normalized growth is reported as 1.02 ± 0.031. Molecule `CC(=O)CCCCn1c(=O)c2c(ncn2C)n(C)c1=O` has a normalized growth of 0.964 ± 0.027. For `C[C@H]1O[C@@H](n2cc(F)c(=O)[nH]c2=O)[C@H](O)[C@@H]1O`, the normalized growth was 0.412 ± 0.11. `CCN1CCCC(OC(=O)C(c2ccccc2)c2ccccc2)C1` (centres undefined) gave a normalized growth of 1.07 ± 0.016. `Nc1ccc(C(=O)O)cc1` gave a normalized growth of 1.04 ± 0.028. Work on `CCCCCNC(=N)N/N=C/c1c[nH]c2ccc(OC)cc12` yielded a normalized growth of 1.09 ± 0.12. Work on `COc1c(C)c2c(c(O)c1C/C=C(\C)CCC(=O)O)C(=O)OC2` yielded a normalized growth of 1.068 ± 0.0082. For `O=C(Oc1ccccc1C(=O)O)c1ccccc1O`, the normalized growth was 0.848 ± 0.029. In the case of `O=C(O)c1ccc(S(=O)(=O)N(Cl)Cl)cc1`, the normalized growth is reported as 0.999 ± 0.013. Work on `NCCNCCNCCN` yielded a normalized growth of 0.995 ± 0.047. `CCCC1O[C@@H]2C[C@H]3[C@@H]4CCC5=CC(=O)C=C[C@]5(C)[C@H]4[C@@H](O)C[C@]3(C)[C@]2(C(=O)CO)O1` (some centres undefined) showed a normalized growth of 1.01 ± 0.026. `Nc1nc(N)c2nc(CNc3ccc(C(=O)N[C@@H](CCC(=O)O)C(=O)O)cc3)cnc2n1` was tested, and the normalized growth was 1.14 ± 0.045. Molecule `CC(C(=O)O)c1cccc(C(=O)c2ccccc2)c1` (centres undefined) has a normalized growth of 1 ± 0.056. With `CCOC(=O)c1ncn2c1CN(C)C(=O)c1cc(F)ccc1-2` the normalized growth was 0.93 ± 0.11. In the case of `O=NN(CCCl)C(=O)NCCCl`, the normalized growth is reported as 1.06 ± 0.097.
